Data as given in PubChem BioAssay AID1259307 (Sanger Institute, 2017)

Test: 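siRNA kinome screen seeking kinases whose loss harms SW620 cells alone or with drugs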 (primary screen)
System: SW620 colorectal cancer cells
Knock-down reagent: siRNA pool against human genes
Conditions: anchor drugs BYL719 at 1 µM, cetuximab at 5 µg/ml or trametinib at 10 nM, each beside a DMSO vehicle arm
Read-out: 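Per-well viability versus non-targeting control pool, replicate-averaged, robust z-score from controls; synergy scores for BYL719 1 µM, cetuximab 5 µg/ml, trametinib 10 nM against DMSO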
Scale: viability robust z-score, no drug and viability vs control, no drug: higher = more viable cells
Rule for the call: 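Essential when the viability robust z-score without drug is under -3; synergy scores are ignored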
Calls: active = essential (lethal alone); inactive = no change alone
The whole screen tested 794 reagents; this is a random part of them. Over the whole deposit, 15 (1.9%) were called active. 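Calls reflect lethality without any drug; synergy scores did not enter the calls.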 A number with no mark means an inactive call. No viability above 1 is reported: the scale is capped. Further read-outs or replicates are left out here. Not stated in the record: the amount of reagent, the time to read-out.

Against MED24 (mediator complex subunit 24), the values are viability robust z-score, no drug 0.736; viability vs control, no drug 1.
For DCLK3 (doublecortin like kinase 3) the deposit lists viability robust z-score, no drug 0.736; viability vs control, no drug 1.
Knock-down of RPS6KB2 (ribosomal protein S6 kinase B2) gave: viability robust z-score, no drug 0.593; viability vs control, no drug 0.987.
For PIP4K2A (phosphatidylinositol-5-phosphate 4-kinase type 2 alpha) the deposit lists viability robust z-score, no drug 0.137; viability vs control, no drug 0.945.
For GAK (cyclin G associated kinase), the values are viability robust z-score, no drug 0.736; viability vs control, no drug 1.
MELK (maternal embryonic leucine zipper kinase) scored viability robust z-score, no drug 0.736; viability vs control, no drug 1.
Silencing of LMBR1 (limb development membrane protein 1) gave: viability robust z-score, no drug -0.162; viability vs control, no drug 0.917.
After knock-down of NEK4 (NIMA related kinase 4), the screen gave viability robust z-score, no drug -0.277; viability vs control, no drug 0.906.
CDKL1 (cyclin dependent kinase like 1) scored viability robust z-score, no drug -0.494; viability vs control, no drug 0.886.
CLK4 (CDC like kinase 4) gave viability robust z-score, no drug -0.327; viability vs control, no drug 0.902.
ACVRL1 (activin A receptor like type 1) gave viability robust z-score, no drug 0.736; viability vs control, no drug 1.
Against PKN3 (protein kinase N3) the deposit lists viability robust z-score, no drug -0.981; viability vs control, no drug 0.842.

No new results follow: 5 of the entries above.
MELK (maternal embryonic leucine zipper kinase) | viability robust z-score, no drug: 0.736; viability vs control, no drug: 1
LMBR1 (limb development membrane protein 1) | viability robust z-score, no drug: -0.162; viability vs control, no drug: 0.917
NEK4 (NIMA related kinase 4) | viability robust z-score, no drug: -0.277; viability vs control, no drug: 0.906
CDKL1 (cyclin dependent kinase like 1) | viability robust z-score, no drug: -0.494; viability vs control, no drug: 0.886
CLK4 (CDC like kinase 4) | viability robust z-score, no drug: -0.327; viability vs control, no drug: 0.902

The list goes on.
PFKFB3 (6-phosphofructo-2-kinase/fructose-2,6-biphosphatase 3) showed viability robust z-score, no drug 0.58; viability vs control, no drug 0.986.
With knock-down of MAST2 (microtubule associated serine/threonine kinase 2), the record shows viability robust z-score, no drug 0.467; viability vs control, no drug 0.975.
TAOK1 (TAO kinase 1) showed viability robust z-score, no drug 0.59; viability vs control, no drug 0.986.
After knock-down of NTN4 (netrin 4), the screen gave viability robust z-score, no drug -1.14; viability vs control, no drug 0.826.
For CLK1 (CDC like kinase 1) the deposit lists viability robust z-score, no drug 0.736; viability vs control, no drug 1.
After knock-down of MOS (MOS proto-oncogene, serine/threonine kinase), the screen gave viability robust z-score, no drug -0.0714; viability vs control, no drug 0.925.
Against ARID1A (AT-rich interaction domain 1A), the values are viability robust z-score, no drug -1.37; viability vs control, no drug 0.805.
With knock-down of BPTF (bromodomain PHD finger transcription factor), the record shows viability robust z-score, no drug -1.11; viability vs control, no drug 0.829.
For AURKB (aurora kinase B), the entry reads viability robust z-score, no drug -0.873; viability vs control, no drug 0.852.
With knock-down of RIOK3 (RIO kinase 3) the results were viability robust z-score, no drug -0.173; viability vs control, no drug 0.916.
ABL2 (ABL proto-oncogene 2, non-receptor tyrosine kinase) showed viability robust z-score, no drug 0.389; viability vs control, no drug 0.968.
After knock-down of RPS6KA6 (ribosomal protein S6 kinase A6) the results were viability robust z-score, no drug -0.0367; viability vs control, no drug 0.929.
Silencing of FGR (FGR proto-oncogene, Src family tyrosine kinase) came out at: viability robust z-score, no drug -0.683; viability vs control, no drug 0.869.
NRBP2 (nuclear receptor binding protein 2) scored viability robust z-score, no drug -0.126; viability vs control, no drug 0.92.
Silencing of IPMK (inositol polyphosphate multikinase) came out at: viability robust z-score, no drug 0.736; viability vs control, no drug 1.
For TPK1 (thiamin pyrophosphokinase 1) the deposit lists viability robust z-score, no drug -2.36; viability vs control, no drug 0.715.
